PubChem BioAssay AID1224828, NIAID, 2016
The deposit covers about 17,000 reagents; below is an unselected part. 762 of all reagents (4.5%) count as active. 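Active calls include both raised and lowered p65 entry, mostly lowered; wells with fewer than 50 cells lack a z-score.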 Raw values vary from plate to plate and are shown uncorrected.

Screen: 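Knock-downs that increase or decrease LPS-induced p65 nuclear translocation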 (primary screen)
Cell system: mouse RAW264.7 G9 macrophage reporter cells (GFP-p65, Tnf promoter-mCherry)
Reagents: siRNA pool against mouse genes, 100 nM
Duration: 2 days siRNA transfection, then 40 min LPS before fixation
Treatment: LPS (Salmonella minnesota R595) at 10 ng/ml
Measured: 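Imaged p65 nuclear translocation ratio, normalised to the plate median, converted to robust z-scores and averaged across two replicates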
Reading the numbers: p65 translocation robust z-score: higher = more nuclear NF-kappaB p65 after LPS than the plate median; nuclear/cytoplasmic p65 ratio: higher = more nuclear NF-kappaB p65
Active means: 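Active if robust z is above 3.3 (negative regulators) or below -1.56, the Tlr4 control median (positive regulators); activity score 50 or more; control wells not called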
Meaning of the calls: active = hit (p65 shift raised or lowered); inactive = no clear change

gene,p65 translocation robust z-score,"nuclear/cytoplasmic p65 ratio, rep 1","nuclear/cytoplasmic p65 ratio, rep 2",low cell count flag,call
Wdr4,-1,1.46,1.37,enough cells to score,inactive
Myl3,-1.34,1.25,1.19,enough cells to score,inactive
Olr1,-1.06,1.33,1.25,enough cells to score,inactive
Foxc1,0.07,1.37,1.45,enough cells to score,inactive
Sack1a,-0.84,1.47,1.68,enough cells to score,inactive
C130073F10Rik,,1.26,1.49,fewer than 50 cells per well; well left out of scoring,inactive
Gm9732,,1.34,1.31,fewer than 50 cells per well; well left out of scoring,inactive
Spata2l,,1.21,1.29,fewer than 50 cells per well; well left out of scoring,inactive
Uox,,1.18,1.12,fewer than 50 cells per well; well left out of scoring,inactive
Or2d4,,1.39,1.18,fewer than 50 cells per well; well left out of scoring,inactive
Or4c114,1.02,1.86,1.69,enough cells to score,inactive
Meis2,0.97,1.53,1.51,enough cells to score,inactive
Or4f59,0.79,1.63,1.61,enough cells to score,inactive
Crygb,0.65,1.55,1.48,enough cells to score,inactive
Cgnl1,,1.12,1.26,fewer than 50 cells per well; well left out of scoring,inactive
1700012A03Rik,,1.6,1.34,fewer than 50 cells per well; well left out of scoring,inactive
Sertad4,,1.32,1.27,fewer than 50 cells per well; well left out of scoring,inactive
Zdhhc9,-1.89,1.13,1.06,enough cells to score,active
Tmsb4x,-0.32,1.37,1.12,enough cells to score,inactive
Mmgt1,0.53,1.71,1.67,enough cells to score,inactive
Wrnip1,0.09,1.35,1.26,enough cells to score,inactive
Or4x6,1.68,1.78,1.71,enough cells to score,inactive
Abhd17b,-1.83,1.22,1.22,enough cells to score,active
Ighg3,0.29,1.57,1.81,enough cells to score,inactive
Hoxc10,-0.8,1.32,1.28,enough cells to score,inactive
Ube2m,0.03,1.58,1.45,enough cells to score,inactive
Kif5b,0.66,1.62,1.42,enough cells to score,inactive
Rnf6,-0.36,1.52,1.6,enough cells to score,inactive
Smpdl3a,,1.41,0.864,fewer than 50 cells per well; well left out of scoring,inactive
Ermap,1.05,1.76,1.6,enough cells to score,inactive
Poln,2.19,1.83,1.46,enough cells to score,inactive
Snx29,,1.42,1.84,fewer than 50 cells per well; well left out of scoring,inactive
C1ql3,,1.39,1.34,fewer than 50 cells per well; well left out of scoring,inactive
Pptc7,2.2,1.87,2.01,enough cells to score,inactive
Bcl2l2,-0.12,1.58,1.61,enough cells to score,inactive
Tek,2.32,2.02,1.71,enough cells to score,inactive
Elovl1,-1.35,1.13,1.2,enough cells to score,inactive
Or8k53,-0.23,1.69,1.35,enough cells to score,inactive
Pcdha6,1.61,1.66,1.41,enough cells to score,inactive
Or10q1,-1.59,1.42,1.17,enough cells to score,active
Rims2,-0.89,1.29,1.13,enough cells to score,inactive
Alb,-0.67,1.54,1.49,enough cells to score,inactive
Man2b2,-0.83,1.28,1.29,enough cells to score,inactive
Prelid1,-1.13,1.25,1.46,enough cells to score,inactive
Crlf2,-0.64,1.41,1.42,enough cells to score,inactive
Bmp15,-0.06,1.66,1.56,enough cells to score,inactive
Sufu,,1.43,1.4,fewer than 50 cells per well; well left out of scoring,inactive
Inpp5b,-1.71,1.21,1.2,enough cells to score,active
Ptch2,-0.01,1.49,1.42,enough cells to score,inactive
Batf,-0.76,1.47,1.53,enough cells to score,inactive
Vmn1r148,1.03,1.5,1.36,enough cells to score,inactive
Rala,0.73,1.72,1.53,enough cells to score,inactive
A430085C19 (retired record),-1.23,1.21,1.36,enough cells to score,inactive
Sec61g,-0.47,1.5,1.2,enough cells to score,inactive
Vwa2,-0.61,1.47,1.64,enough cells to score,inactive
Rpap1,0.25,1.38,1.25,enough cells to score,inactive
Emc3,1.9,1.78,1.73,enough cells to score,inactive
Dlk1,-1,1.32,1.27,enough cells to score,inactive
Tgtp1,,1.4,1.06,fewer than 50 cells per well; well left out of scoring,inactive

Records above whose target name starts with R or r:
gene,p65 translocation robust z-score,"nuclear/cytoplasmic p65 ratio, rep 1","nuclear/cytoplasmic p65 ratio, rep 2",low cell count flag,call
Rnf6,-0.36,1.52,1.6,enough cells to score,inactive
Rims2,-0.89,1.29,1.13,enough cells to score,inactive
Rala,0.73,1.72,1.53,enough cells to score,inactive
Rpap1,0.25,1.38,1.25,enough cells to score,inactive
